Reference: article PMC6347689, “Native mass spectrometry reveals the conformational diversity of the UVR8 photoreceptor” (Proceedings of the National Academy of Sciences of the …, 2019)
Results are given in words; binding and its absence hold for the method and conditions named. Some binding calls cover weakened binding; strength is not graded here. Blank lines part the entries; values can stand above or below the binder they belong to.

What was measured:
[1] = molecular target: full-length UVR8 (UV … LOCUS8) (Arabidopsis thaliana) (UniProt Q9FN03); assay: native MS; native ion mobility MS with nESI, sample solution illuminated in the ion source tip with a 280-nm LED (25 mW, 350 mA): 10 s for UVR8 12-381, 1 s for full-length UVR8; both purified
[2] = molecular target: T1, full-length UVR8 (UV … LOCUS8) (Arabidopsis thaliana), Q9FN03; assay: native MS; collisional activation before ion mobility (aIMS) and CID of mass-selected dimer ions in the gas phase, in the absence of UV-B light; trap collision voltage 4 to 150 V; both purified; details: remark: other sources report otherwise
T1 chain: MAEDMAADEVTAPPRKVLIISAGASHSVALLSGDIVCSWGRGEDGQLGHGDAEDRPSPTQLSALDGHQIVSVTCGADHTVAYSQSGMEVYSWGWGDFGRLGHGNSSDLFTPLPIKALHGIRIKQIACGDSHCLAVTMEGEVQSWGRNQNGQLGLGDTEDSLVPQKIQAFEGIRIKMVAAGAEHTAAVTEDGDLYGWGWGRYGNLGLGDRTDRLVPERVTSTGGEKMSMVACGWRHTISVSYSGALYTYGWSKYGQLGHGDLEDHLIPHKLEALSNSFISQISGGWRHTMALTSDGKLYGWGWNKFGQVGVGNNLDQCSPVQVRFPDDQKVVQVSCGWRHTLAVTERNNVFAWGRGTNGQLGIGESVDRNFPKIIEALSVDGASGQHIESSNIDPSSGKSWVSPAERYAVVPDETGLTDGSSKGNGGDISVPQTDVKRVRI

[3] = molecular target: T1, full-length UVR8 (UV … LOCUS8) …; assay: native MS; gas phase illumination of trapped ions with a 266-nm Nd:YAG laser (10 Hz, 0.4–1 mJ per pulse, 10–20 shots); both purified; details: remark: other sources report otherwise
[4] = molecular target: UVR8 core domain (residues 12–381, UVR8^12–381) (Arabidopsis thaliana) (UniProt Q9FN03); assay: native MS; native ion mobility MS with nESI, sample solution illuminated in the ion source tip with a 280-nm LED (25 mW, 350 mA): 10 s for UVR8 12-381, 1 s for full-length UVR8; both purified

- binding [1]: binds weakly
B1: full-length UVR8 (UV … LOCUS8) (protein, UniProt Q9FN03 1-440)
chain: T1 chain

- binding [2]: binds
- binding [3]: binds
B2: full-length UVR8 (UV … LOCUS8), Q9FN03 1-440 (natural protein)
chain: T1 chain

- binding [4]: binds weakly
B3: UVR8 core domain (residues 12–381, UVR8^12–381) (domain or fragment, Arabidopsis thaliana, UniProt Q9FN03 12-381, looked up)
chain: APPRKVLIISAGASHSVALLSGDIVCSWGRGEDGQLGHGDAEDRPSPTQLSALDGHQIVSVTCGADHTVAYSQSGMEVYSWGWGDFGRLGHGNSSDLFTPLPIKALHGIRIKQIACGDSHCLAVTMEGEVQSWGRNQNGQLGLGDTEDSLVPQKIQAFEGIRIKMVAAGAEHTAAVTEDGDLYGWGWGRYGNLGLGDRTDRLVPERVTSTGGEKMSMVACGWRHTISVSYSGALYTYGWSKYGQLGHGDLEDHLIPHKLEALSNSFISQISGGWRHTMALTSDGKLYGWGWNKFGQVGVGNNLDQCSPVQVRFPDDQKVVQVSCGWRHTLAVTERNNVFAWGRGTNGQLGIGESVDRNFPKIIEALSVDG
notes: Homodimer in the dark, monomer after UV-B; also called truncated UVR8; source: E. coli Rosetta 2 (DE3) pLysS, purified (Ni-NTA, Strep-Tactin XT, cleaved from the resin with SUMO protease); not shown: 7xHis, N-terminal, cleaved; Strep II, N-terminal, cleaved; SUMO, N-terminal, cleaved
